For ten targets, log2 fold change results are on record in the supplement of paper PMC10849652.

Protein sequences, listed by entry. Tags and fused reporters are not part of them. Lines headed by an entry give the natural chain unless they say otherwise; changes in a name come on top.
UniProt P07864: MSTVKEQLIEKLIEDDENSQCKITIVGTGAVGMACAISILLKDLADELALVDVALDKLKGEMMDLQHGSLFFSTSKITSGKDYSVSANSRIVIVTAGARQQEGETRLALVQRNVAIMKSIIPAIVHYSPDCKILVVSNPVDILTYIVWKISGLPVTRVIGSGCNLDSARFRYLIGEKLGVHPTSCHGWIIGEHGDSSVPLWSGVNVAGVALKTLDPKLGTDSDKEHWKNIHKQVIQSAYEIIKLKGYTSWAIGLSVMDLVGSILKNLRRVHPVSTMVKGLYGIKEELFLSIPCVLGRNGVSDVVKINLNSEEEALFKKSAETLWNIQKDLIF
UniProt Q9UN81: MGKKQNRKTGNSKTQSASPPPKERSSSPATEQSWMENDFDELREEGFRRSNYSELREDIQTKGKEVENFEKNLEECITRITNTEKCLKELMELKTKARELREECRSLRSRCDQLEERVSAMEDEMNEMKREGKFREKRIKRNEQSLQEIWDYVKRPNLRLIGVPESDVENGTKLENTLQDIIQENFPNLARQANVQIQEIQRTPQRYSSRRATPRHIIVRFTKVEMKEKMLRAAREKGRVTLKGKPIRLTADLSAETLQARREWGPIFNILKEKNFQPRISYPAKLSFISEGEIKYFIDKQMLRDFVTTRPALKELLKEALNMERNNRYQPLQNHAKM
UniProt P28300: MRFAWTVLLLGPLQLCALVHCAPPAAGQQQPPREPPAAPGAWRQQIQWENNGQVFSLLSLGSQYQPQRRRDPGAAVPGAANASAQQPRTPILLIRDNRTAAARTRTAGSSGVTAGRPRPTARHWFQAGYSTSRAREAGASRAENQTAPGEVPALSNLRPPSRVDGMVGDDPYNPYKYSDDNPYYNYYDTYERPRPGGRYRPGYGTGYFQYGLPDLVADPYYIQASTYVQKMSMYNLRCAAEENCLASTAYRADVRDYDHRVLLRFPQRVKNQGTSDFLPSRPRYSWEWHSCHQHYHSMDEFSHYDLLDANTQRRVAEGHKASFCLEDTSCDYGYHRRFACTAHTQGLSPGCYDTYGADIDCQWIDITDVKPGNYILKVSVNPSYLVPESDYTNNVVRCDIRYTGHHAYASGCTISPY
UniProt Q6ZV70: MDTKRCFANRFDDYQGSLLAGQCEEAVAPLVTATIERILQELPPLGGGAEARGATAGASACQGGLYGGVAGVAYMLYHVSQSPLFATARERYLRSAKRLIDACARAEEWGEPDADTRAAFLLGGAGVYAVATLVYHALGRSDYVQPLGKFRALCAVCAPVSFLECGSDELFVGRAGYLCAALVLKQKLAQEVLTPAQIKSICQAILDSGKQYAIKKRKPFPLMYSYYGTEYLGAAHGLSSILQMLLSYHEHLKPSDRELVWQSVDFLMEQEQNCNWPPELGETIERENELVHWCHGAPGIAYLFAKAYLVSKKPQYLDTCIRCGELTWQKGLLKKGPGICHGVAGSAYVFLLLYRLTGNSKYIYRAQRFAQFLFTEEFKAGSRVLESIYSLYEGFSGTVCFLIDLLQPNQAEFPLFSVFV
UniProt Q15345: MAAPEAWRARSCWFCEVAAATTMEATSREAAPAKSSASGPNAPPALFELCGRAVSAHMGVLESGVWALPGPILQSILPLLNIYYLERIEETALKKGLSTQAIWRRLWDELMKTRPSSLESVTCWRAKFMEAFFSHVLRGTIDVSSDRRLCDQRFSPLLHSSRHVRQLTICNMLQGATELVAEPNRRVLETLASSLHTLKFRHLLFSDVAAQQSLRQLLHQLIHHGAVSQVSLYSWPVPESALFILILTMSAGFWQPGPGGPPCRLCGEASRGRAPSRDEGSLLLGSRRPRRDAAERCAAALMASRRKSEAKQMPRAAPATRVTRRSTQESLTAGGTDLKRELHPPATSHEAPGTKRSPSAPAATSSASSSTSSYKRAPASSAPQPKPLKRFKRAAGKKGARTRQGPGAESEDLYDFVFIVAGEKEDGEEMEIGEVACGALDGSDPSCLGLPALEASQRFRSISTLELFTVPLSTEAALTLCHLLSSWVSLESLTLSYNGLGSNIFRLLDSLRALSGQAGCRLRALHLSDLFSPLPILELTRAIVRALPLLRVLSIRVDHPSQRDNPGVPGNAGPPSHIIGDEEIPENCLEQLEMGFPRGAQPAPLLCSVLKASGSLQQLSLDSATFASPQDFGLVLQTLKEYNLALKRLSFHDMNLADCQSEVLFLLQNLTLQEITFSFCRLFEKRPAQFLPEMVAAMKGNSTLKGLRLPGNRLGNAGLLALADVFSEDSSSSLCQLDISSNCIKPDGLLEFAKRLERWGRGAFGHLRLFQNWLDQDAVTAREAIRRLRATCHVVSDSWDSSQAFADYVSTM
UniProt Q15048: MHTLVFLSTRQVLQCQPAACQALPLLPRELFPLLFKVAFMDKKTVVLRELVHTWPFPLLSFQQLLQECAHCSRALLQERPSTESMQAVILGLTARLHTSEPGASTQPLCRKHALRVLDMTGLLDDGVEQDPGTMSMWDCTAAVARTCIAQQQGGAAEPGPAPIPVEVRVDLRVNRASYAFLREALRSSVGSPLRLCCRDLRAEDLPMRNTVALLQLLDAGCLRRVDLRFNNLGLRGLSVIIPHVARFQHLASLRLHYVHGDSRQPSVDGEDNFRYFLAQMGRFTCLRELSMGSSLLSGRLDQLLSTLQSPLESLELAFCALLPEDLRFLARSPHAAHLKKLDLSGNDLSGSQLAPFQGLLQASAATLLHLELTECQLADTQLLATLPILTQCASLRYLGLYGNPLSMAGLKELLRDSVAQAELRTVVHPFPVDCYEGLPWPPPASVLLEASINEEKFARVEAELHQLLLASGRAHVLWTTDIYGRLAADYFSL
UniProt Q5SW96: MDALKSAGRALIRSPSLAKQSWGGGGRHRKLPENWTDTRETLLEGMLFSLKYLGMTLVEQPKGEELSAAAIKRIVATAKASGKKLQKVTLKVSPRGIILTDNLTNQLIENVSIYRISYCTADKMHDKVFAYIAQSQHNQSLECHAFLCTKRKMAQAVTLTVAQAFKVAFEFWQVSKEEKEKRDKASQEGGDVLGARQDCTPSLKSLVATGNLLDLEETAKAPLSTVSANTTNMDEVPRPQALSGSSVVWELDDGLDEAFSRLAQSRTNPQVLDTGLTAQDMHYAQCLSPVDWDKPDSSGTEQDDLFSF
UniProt O14910: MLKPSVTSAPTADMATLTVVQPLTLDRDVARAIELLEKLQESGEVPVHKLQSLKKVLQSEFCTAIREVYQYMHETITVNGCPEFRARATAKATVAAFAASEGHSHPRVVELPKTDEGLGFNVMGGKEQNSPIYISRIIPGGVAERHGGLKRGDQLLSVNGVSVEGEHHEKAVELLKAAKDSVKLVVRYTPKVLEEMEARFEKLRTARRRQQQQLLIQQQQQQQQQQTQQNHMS
UniProt Q9BQD3: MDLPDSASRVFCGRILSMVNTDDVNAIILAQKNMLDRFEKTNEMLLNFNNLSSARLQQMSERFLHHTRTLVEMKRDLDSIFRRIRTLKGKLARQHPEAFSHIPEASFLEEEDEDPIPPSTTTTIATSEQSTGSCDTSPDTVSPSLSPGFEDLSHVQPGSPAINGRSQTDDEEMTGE
UniProt P53667: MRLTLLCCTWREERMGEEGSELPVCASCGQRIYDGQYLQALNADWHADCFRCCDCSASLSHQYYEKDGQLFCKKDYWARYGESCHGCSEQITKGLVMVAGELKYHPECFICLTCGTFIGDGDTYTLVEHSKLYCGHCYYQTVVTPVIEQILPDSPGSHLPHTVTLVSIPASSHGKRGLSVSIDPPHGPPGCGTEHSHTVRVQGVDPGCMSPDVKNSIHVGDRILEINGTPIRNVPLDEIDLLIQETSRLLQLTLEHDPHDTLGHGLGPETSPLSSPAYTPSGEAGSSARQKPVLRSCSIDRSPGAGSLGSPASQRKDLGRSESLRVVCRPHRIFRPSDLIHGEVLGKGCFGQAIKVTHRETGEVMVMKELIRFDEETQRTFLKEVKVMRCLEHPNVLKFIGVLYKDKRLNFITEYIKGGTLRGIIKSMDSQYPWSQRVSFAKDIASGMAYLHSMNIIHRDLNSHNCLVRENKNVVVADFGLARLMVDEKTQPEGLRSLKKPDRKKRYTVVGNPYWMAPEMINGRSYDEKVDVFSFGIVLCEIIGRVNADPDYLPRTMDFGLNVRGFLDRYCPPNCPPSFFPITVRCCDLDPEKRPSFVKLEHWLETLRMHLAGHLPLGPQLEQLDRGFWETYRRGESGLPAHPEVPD

What all share (assay): log2 fold change, soluble protein after heating vs DMSO (PISA); higher = thermal stabilisation; K562 cells, 10 uM, 30 min; active = over 0.2 and 3.5 SD of the protein, either way, in both replicates (recomputed)
Compound in one assay: Cc1ccc(NC(=O)c2ccc(CN3CC[C@H](N(C)C)C3)c(C(F)(F)F)c2)cc1Nc1nccc(-c2cncnc2)n1 [bafetinib]
In short, it runs like this: (§1)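 K562 cells (2×10^6 cells/mL) were treated with 10 μM compound for 30 min, and aliquots were heated for 3 min over 48°C-58°C. Pooled aliquots were extracted in PBS with 0.5% NP-40 at 4°C, and the supernatant after 21,000xg for 90 min was measured by TMTpro 16plex LC-MS/MS with channel sums equalised. Reported thermal stability, relative to control samples and from duplicates, is a log2 fold change.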

Compound in another assay: Cc1cn(-c2cc(NC(=O)c3ccc(C)c(Nc4nccc(-c5cccnc5)n4)c3)cc(C(F)(F)F)c2)cn1 [nilotinib]
In short, it runs like this: as §1

Compound in assay [1]: Cc1nc(Nc2n[nH]c3c2CN(C(=O)N[C@H](CN(C)C)c2ccccc2)C3(C)C)c2sccc2n1
In short, it runs like this: as §1

Compound in assay [2]: Cc1ncc(-c2ccnc(Nc3ccc(S(C)(=O)=O)cc3)n2)n1C(C)C
The method, boiled down:
as §1

Compound in assay [3]: NC(=O)Nc1cc(-c2cccc(F)c2)sc1C(=O)N[C@H]1CCCNC1
In short, it runs like this: as §1

Compound in another assay: Nc1ccccc1NC(=O)c1ccc(CNC(=O)OCc2cccnc2)cc1 [entinostat]
In short, it runs like this: as §1

Compound in assay [4]: O=C1NC(=O)C(c2cnc3ccccn23)=C1c1cn2c3c(cc(F)cc13)CN(C(=O)N1CCCCC1)CC2
In short, it runs like this:
as §1

Compound in a further assay: Cc1nc(Nc2ncc(C(=O)Nc3c(C)cccc3Cl)s2)cc(N2CCN(CCO)CC2)n1 [dasatinib]
In short, it runs like this: as §1

Compound in assay [5]: Cn1cc(-c2ccc3c(c2)CCN3C(=O)Cc2cccc(C(F)(F)F)c2)c2c(N)ncnc21
In short, it runs like this: as §1

Compound in assay [6]: Cn1cc(-c2ccc3nnc(C(F)(F)c4ccc5ncccc5c4)n3n2)cn1
The method, boiled down: as §1

Compound in another assay: Cn1cncc1[C@@](N)(c1ccc(Cl)cc1)c1ccc2c(c1)c(-c1cccc(Cl)c1)cc(=O)n2C [tipifarnib]
The method, boiled down:
as §1

Compound in another assay: FC(F)(F)c1ccc(/C=C/c2nc(COc3ccc(CCCCn4ccnn4)cc3)co2)cc1 [mubritinib]
The method, boiled down: as §1

Compound in assay [7]: NC(=O)c1cnc(N[C@@H]2CCCC[C@@H]2N)nc1Nc1cccc(-n2nccn2)c1
The method, boiled down:
as §1

Compound in assay [8]: NC1(c2ccc(-c3nc4ccn5c(=O)[nH]nc5c4cc3-c3ccccc3)cc2)CCC1
In short, it runs like this: as §1

Compound in assay [9]: NCC(=O)Nc1ccc(-n2nc(C(F)(F)F)cc2-c2ccc3c(ccc4ccccc43)c2)cc1
The method, boiled down:
as §1

Compound in another assay: O=C(CCCCCCNC(=O)c1cnc(N(c2ccccc2)c2ccccc2Cl)nc1)NO [citarinostat]
In short, it runs like this:
as §1

Compound in another assay: O=C(O)c1ccc2c(c1)nc(Nc1cccc(Cl)c1)c1ccncc12 [silmitasertib]
The method, boiled down:
as §1

Compound in assay [10]: c1cc(OCCN2CCCCC2)cc(-c2n[nH]c3ccc(-c4nnc[nH]4)cc23)c1
The method, boiled down:
as §1

Compound in assay [11]: Cc1cccc(CC(=O)N2CCc3c2ccc(-c2cn(C)c4ncnc(N)c24)c3F)n1
The method, boiled down:
as §1

Compound in another assay: O=C(CCCCCCC(=O)Nc1ccccc1)NO [vorinostat]
The method, boiled down: as §1

Some of the results follow.

LDHC (UniProt P07864): the log2 fold change in the assay with bafetinib was inactive: 0.01; with nilotinib, inactive: -0.019; in [1], inactive: -0.012; in assay [2], inactive: 0.009; in assay [3] it was inactive: -0.032; in the assay with entinostat, inactive: -0.026. For the same target, the log2 fold change in assay [4] is inactive: 0.066.

L1RE1 (UniProt Q9UN81): the log2 fold change with bafetinib was inactive: 0.151; with nilotinib, inactive: 0.154; in assay [1], inactive: 0.043; with dasatinib, inactive: 0.189; in [2], inactive: -0.003; in assay [5], inactive: -0.016. In addition, the log2 fold change in assay [6] was inactive: -0.122; in the assay with tipifarnib, inactive: 0.088; with mubritinib it was inactive: 0.014; in [3] it was inactive: -0.079; in [7], inactive: 0.211; in [8], inactive: -0.004. Besides, the log2 fold change in assay [9] is inactive: 0.062; with entinostat it was inactive: -0.048; with citarinostat it was inactive: -0.206; with silmitasertib, inactive: 0.199; in assay [4], inactive: -0.226; in assay [10], inactive: -0.194.

For LOX (UniProt P28300), the log2 fold change was active: -0.734 in the assay with bafetinib; inactive: -0.183 with nilotinib; inactive: 0.175 in assay [1]; inactive: 0.12 in [2]; inactive: -0.017 in the assay with mubritinib; inactive: -0.086 in assay [8]. The log2 fold change in the assay with silmitasertib was inactive: 0.187.

Regarding LANCL3 (UniProt Q6ZV70), the log2 fold change was inactive: 0.035 with bafetinib; inactive: -0.182 in the assay with nilotinib; inactive: 0.121 in assay [1]; inactive: -0.114 with dasatinib; inactive: -0.063 in [2]; inactive: -0.011 in assay [5]. The log2 fold change in assay [3] is inactive: 0.116; in assay [7], inactive: 0.031; with entinostat, inactive: -0.158; in assay [4], inactive: -0.029.

With LRRC41 (UniProt Q15345), the log2 fold change with bafetinib was inactive: -0.419; with tipifarnib, inactive: 0.015; in [3], inactive: -0.108; in the assay with entinostat, inactive: 0.256.

In the case of LRRC14 (UniProt Q15048), the log2 fold change with bafetinib is inactive: -0.125; with nilotinib it was inactive: 0.026; in [1], inactive: -0.022; in the assay with dasatinib, inactive: -0.086; in [2], inactive: 0.173; with tipifarnib it was inactive: 0.04. For the same target, the log2 fold change is inactive: 0.245 with mubritinib; inactive: 0.133 in assay [7]; inactive: -0.014 in assay [8]; inactive: -0.269 in [9]; inactive: 0.022 with citarinostat; inactive: 0.022 with silmitasertib. In addition, the log2 fold change in assay [10] was inactive: -0.063.

Consider LDLRAP1 (UniProt Q5SW96), for which the log2 fold change with bafetinib is inactive: -0.011; in [6] it was inactive: 0.14.

Regarding LIN7A (UniProt O14910), the log2 fold change in the assay with bafetinib was inactive: -0.015; with nilotinib, inactive: -0.022; in assay [1] it was inactive: 0.039; with dasatinib, inactive: -0.005; in [2] it was inactive: -0.044; in assay [5], inactive: -0.019. For the same target, the log2 fold change in assay [6] was inactive: -0.025; in the assay with tipifarnib it was inactive: -0.132; with mubritinib it was inactive: -0.006; in assay [3], inactive: -0.082; in assay [7] it was inactive: 0.058; in [8], inactive: -0.069. Further, the log2 fold change in assay [9] was inactive: -0.065; in the assay with entinostat, inactive: 0.003; with citarinostat, inactive: -0.024; in the assay with silmitasertib, inactive: 0.033; in assay [4], inactive: -0.119; in [10], inactive: -0.063.

As for KXD1 (UniProt Q9BQD3), the log2 fold change with bafetinib was inactive: -0.131; in [11] it was inactive: 0.045; with dasatinib, inactive: -0.082; in [5], inactive: 0.019; in assay [6] it was inactive: 0.085; with tipifarnib it was inactive: 0.024. For the same target, the log2 fold change is inactive: 0.052 with mubritinib; inactive: -0.091 in [7]; inactive: -0.237 in assay [8]; inactive: -0.021 in assay [9]; inactive: -0.046 with vorinostat; inactive: 0.042 in the assay with citarinostat. Besides, the results for the log2 fold change (with silmitasertib; in assay [4]; in [10]) were inactive: -0.113, inactive: 0.131 and inactive: -0.055, respectively.

As for LIMK1 (UniProt P53667), the log2 fold change was inactive: -0.05 with bafetinib; inactive: -0.089 in the assay with tipifarnib; inactive: -0.064 in assay [3]; inactive: 0.065 with entinostat; inactive: 0 in assay [4].
